We go through two molecules from article PMC3389674, “Comparison of Soluble Guanylate Cyclase Stimulators and Activators in Models of Cardiovascular Disease Associated with Oxidative Stress” (Frontiers in Pharmacology, 2012).

SMILES strings stand for the structures.

In this data set the test system is SHR-SP. As to the kind of experiment: chronic treatment of SHR-SP on high salt/fat diet: survival, blood pressure, renal and cardiac function. The format is in vivo, rat. The source says: The SHR-SP is an established model of genetic hypertension. […] As such, a cohort of HSFD SHR-SP was established as a model of cardiovascular disease associated with chronic oxidative stress in this study.
A subgroup of animals (n = 45) was anesthetized with isoflurane and surgically implanted with radiotelemetry transmitters (PhysioTel PA-C40, Data Sciences International, St. Paul, MN, USA). The transmitter catheter was threaded through the femoral artery into the abdominal aorta. At 11–12 weeks of age, baseline blood pressure and heart rate were measured for 5 days (10 s recordings every 5 min) in normal caging, then rats were acclimated to metabolic caging for a minimum of 48 h before a basal 24 h urine sample and blood were collected. […] The ND group was maintained on normal chow and water throughout the study. […] Rats displaying signs of morbidity which included piloerection, lack of grooming, persistent body weight loss, lethargy, or seizure/convulsions, were promptly euthanized.
Treatments were administered in respective diets starting 1 week after the initiation of HSFD. Urine collections were repeated on weeks 2, 4, 6, and 8 and blood was sampled in the morning after each 24 h collection period for assessment of renal function. Plasma creatinine and urine sodium, microalbumin (MALB), and creatinine were ascertained using an AU640 Chemistry Analyzer (Olympus America, Inc., Center Valley, PA, USA). Plasma compound concentrations were determined as described above.
During week 7, cardiac function and morphometry were evaluated via transthoracic echocardiography. Rats were anesthetized with isoflurane (2–4% induction and 1–3% maintenance). Two-dimensional gray scale images of the left ventricle were obtained in the short axis plane at mid-ventricle level and in the parasternal long axis plane using a GE Vivid 7 system (GE Medical Systems, Milwaukee, WI, USA) and stored as digital cineloops. Pulse wave Doppler recordings from the LV outflow were obtained to determine heart rate. All images were analyzed by a single observer using a GE EchoPac (GE Medical Systems, Milwaukee, WI, USA). LV volumes were calculated as V=5/6(LVA×LVL) where LVA is area of LV chamber from the short axis view and LVL is the LV length from the long axis view at end diastole and end systole. […] Analysis was performed on three to five cardiac cycles.

Consider `COC(=O)Nc1c(N)nc(-c2nn(Cc3ccccc3F)c3ncccc23)nc1N` [BAY 60-4552], for which the “BW (body weight at week 7)” value by setting is: (HSFD + 0.3 mg/kg/day in chow) 328 ± 6 g; (HSFD + 3.0 mg/kg/day in chow) 345 ± 14 g.
For `Cc1cc(-c2ccc(OC(F)(F)F)cc2)ccc1COc1ccccc1-c1cccc(-n2ncc(C(=O)O)c2C(F)(F)F)n1` [GSK2181236A, 1-(6-{2-[({3-methyl-4′-[(trifluoromethyl)oxy]-4-biphenylyl}methyl)oxy]phenyl}-2-pyridinyl)-5-(trifluoromethyl)-1H-pyrazole-4-carboxylic acid], the “BW (body weight at week 7)” value is, setting by setting: (HSFD + 0.1 mg/kg/day in chow) 331 ± 16 g; (HSFD + 1.0 mg/kg/day in chow) 338 ± 5 g.
